From patent US8124642B2, “Pesticidal N-phenylpyrazole derivatives” (Merial Limited, priority 2004, dated 2012)
Some results were stated once for a whole list of compounds, not compound by compound.

Tested on: Ctenocephalides felis
Test: Method A: screening method to test systemicity of compounds against Ctenocephalides felis (cat flea), artificial dog test with treated bovine blood
Type: in vivo
Conditions: test concentration of 5 ppm or less; compound solution in bovine blood; 10 adults; assessment at 24 and 48 hours after application

SMILES | control of Ctenocephalides felis
CCSC(CN(C)c1c(S(=O)(=O)C(F)(F)F)c(C#N)nn1-c1c(Cl)cc(C(F)(F)F)cc1Cl)SCC [Compound 1-3, 1-(2,6-Dichloro-4-trifluoromethylphenyl)-3-cyano-5-N-(2,2-diethylthioethyl)-5-N-methylamino-4-trifluoromethylsulfonylpyrazole] | at least 90%
CN(CC1OCCS1)c1c(S(=O)(=O)C(F)(F)F)c(C#N)nn1-c1c(Cl)cc(C(F)(F)F)cc1Cl (stereo not drawn) [Compound 1-5, 1-(2,6-Dichloro-4-trifluoromethylphenyl)-3-cyano-5-N-[2,2-(1,3-oxathiolanyl)ethyl]-5-N-methylamino-4-trifluoromethylsulfonylpyrazole] | at least 90%
CN(CCC1OCCO1)c1c(SC(F)(F)F)c(C#N)nn1-c1c(Cl)cc(C(F)(F)F)cc1Cl [Compound 2-100, 1-(2,6-Dichloro-4-trifluoromethylphenyl)-3-cyano-5-[2-(1,3-dioxolan-2-yl)ethyl]-5-N-methylamino-4-trifluoromethylthiopyrazole] | at least 90%
COC(CN(C)c1c(S(=O)(=O)C(F)(F)F)c(C#N)nn1-c1c(Cl)cc(C(F)(F)F)cc1Cl)SC (stereo not drawn) [Compound 1-2, 1-(2,6-dichloro-4-trifluoromethylphenyl)-3-cyano-5-N-(2-methoxy-2-methylthioethyl)-5-N-methylamino-4-trifluoromethylsulfonylpyrazole] | at least 90%
COC(CN(C)c1c(S(=O)(=O)C(F)(F)F)c(C#N)nn1-c1c(Cl)cc(C(F)(F)F)cc1Cl)OC [Compound 1-33, 1-(2,6-Dichloro-4-trifluoromethylphenyl)-3-cyano-5-N-(2,2-dimethoxyethyl)-5-N-methylamino-4-trifluoromethylsulfonylpyrazole] | at least 90%
CSC(CN(C)c1c(S(=O)(=O)C(F)(F)F)c(C#N)nn1-c1c(Cl)cc(C(F)(F)F)cc1Cl)SC [Compound 1-1, 1-(2,6-Dichloro-4-trifluoromethylphenyl)-3-cyano-5-N-(2,2-dimethylthioethyl)-5-N-methylamino-4-trifluoromethylsulfonylpyrazole] | at least 90%
